# Primary screen of a compound library

T. brucei: 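Whole-parasite assay of Trypanosoma brucei over 72 hours; the read-out is not stated. Compounds at 30 µM. Higher reads as stronger inhibition (inferred: compounds with an IC50 in retests scored well above the rest). Values scatter widely below zero; nearly all retest evidence comes from the higher of the two concentrations used. About 64,000 compounds were tested under these conditions; 1.5% (about 940) showed 50% or more at least once.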
Toxoplasma: 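Assay of Toxoplasma gondii numbers, read through their beta-galactosidase reporter with a colour substrate. Tested at 10 µM. Higher reads as fewer parasites (inferred from which compounds were picked for retests). Of about 67,000 compounds tested this way, about 260 (0.38%) reached 50% or more in at least one test.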

Results are given as percent effect. The record does not define 0% and 100%; most values in the screen are far below 50% and negative numbers occur (in some assays of this library far below -100). The compounds are a random part of those screened. A dash means the value is not listed here; it may have been measured.

SMILES	T. brucei	Toxoplasma
COCCn1cc(C(=O)N2CCCC2c2ccncc2)c2ccccc21 (configuration not stated)	13.33	0.5247
O=C(O)C(F)(F)F.[H][C@@]12COC[C@]1(COc1cccnc1)CN(C(=O)Cc1ccccc1F)C2	-	-0.3765
CC1CCCN(C(=O)c2ccn(COc3ccccc3)n2)C1 (configuration not stated)	-13.14	12.86
O=c1[nH]nc2c(N3CCOCC3)nccn12	-	3.156
CC(Cn1cncn1)NC(=O)c1cn(Cc2ccccc2F)nn1 (configuration not stated)	-11.25	-2.626
CCc1ccccc1-n1cc(O)c(C(=O)N2CCCCC2)n1	-47.28	-1.4
COc1ccc2c(c1)OCC(Cc1cc(C(=O)N3CCCC3)ccn1)C2 (configuration not stated)	-17.59	-2.211
COc1ccc(C(C)NCc2ccnn2C)cc1Cn1cccn1 (configuration not stated)	-9.143	-9.238
CCn1c(C2CCCN(Cc3ccc(OC)c(C)c3C)C2)nn(C)c1=O (configuration not stated)	-9.334	10.14
Cc1nc(-c2ccsc2)ccc1C(=O)N(C)CC(F)(F)F	6.683	-5.492
CC(C)(C)C1CCC(O)(CNC(=O)CCS(C)(=O)=O)CC1 (configuration not stated)	9.039	-2.632
O=C(NCC1CC1)C1=NOC2(CCN(Cc3ccc(Cl)c(F)c3)C2)C1 (configuration not stated)	-0.5924	4.586
Cn1cccc(NC(=O)COc2ccc(Br)cc2)c1=O	-55.51	-0.4419
CCc1nnc2n1CC(CNCC1CCCC1)CC2 (configuration not stated)	24.83	-1.705
CC(C)(CN1CCC2(CCCNC2)C1)N1CCOCC1 (configuration not stated)	-31.22	-3.515
COc1ccc(N2CCCC3(C2)CN(c2cccnc2)CCO3)cc1.O=C(O)C(F)(F)F (configuration not stated)	-10.81	9.267
CC(C)CNC(=O)NC(=O)CNc1ccccc1SCC(C)C#N (configuration not stated)	-87.66	-2.737
Cc1nc(COC[C@@H]2CCC[C@@]23CN(C)CCO3)cs1.O=C(O)C(F)(F)F	42.28	3.941
CCOCc1nn(C)c2c1CN(CCO)CC2	-70.74	9.795
Cc1ncc(-c2ccnc(N[C@@H](C)CO)n2)c(C2CCCCC2)n1	-11.07	5.987
[H][C@@]12CS(=O)(=O)C[C@]1([H])N(Cc1cnc(C)nc1)CCN2C(=O)CC	-38.58	-
Cc1cc(C2CCCN(CC(=O)Nc3nc4c(s3)CCC4)C2)n[nH]1 (configuration not stated)	99.45	56.52
O=c1cc(Cn2cncn2)nc2n1CCCN(Cc1ccoc1)C2	11.08	1.668
O=C(NCc1cccnc1N1CCCCC1)c1ccc2cc[nH]c2c1	-10.77	-7.626
O=C(O)C(F)(F)F.O=C(c1cscn1)N1CCC2(CCN(Cc3nccs3)CC2)C1	-30.33	-3.795
CS(=O)(=O)NC1CCN(C(=O)NCCc2ccccn2)CC1	-	42.3
Cn1cnnc1S(=O)(=O)C1CCN(C(=O)c2ccsc2)CC1	-39.17	-7.887
CC(C)c1nn(C)c(N(C)C)c1CNCc1ccc2c(c1)OCCO2	4.132	-6.395
CCn1nc(C)c(CNC(=O)c2cn(CC3CCCO3)nn2)c1C (configuration not stated)	37.97	-2.974
CSc1ccc(NC(=O)Cn2cc(NC(C)=O)cn2)cc1	-92.03	-16.74
Cc1nn(C)c(N(C)C)c1CNCc1ccc(OCCN(C)C)cc1	-1.141	-9.31
CC(C)n1ccnc1C1CCCN(c2cncc(N(C)C)n2)C1 (configuration not stated)	2.728	1.82
Cc1noc(C)c1CN1CCN(C(=O)Cn2cncn2)CC1	11.38	0.7974
Cc1ccc(CN2CCCC3(COCCN(Cc4c[nH]nn4)C3)C2)o1.O=C(O)C(F)(F)F.O=C(O)C(F)(F)F (configuration not stated)	-0.09539	0.1068
Cn1cccc1C(=O)NCc1cn2c(n1)CN(Cc1cccnc1)CC2.O=C(O)C(F)(F)F.O=C(O)C(F)(F)F	-21.73	-2.226
[H][C@@]12CCN(C(C)=O)C[C@@]1([H])[C@H](C(=O)NCc1ccco1)CCO2	-28.86	-5.118
Cc1cc(O)c(OCC(=O)/N=c2/[nH]c3c(s2)CCC3)cn1	-5.953	-32.99
CN(Cc1ccc2c(c1)OCCO2)C(=O)Cn1ccccc1=O	-18.77	-1.611
COCC(=O)N1CCC2(CC1)CC(COC)N(Cc1ccccn1)C2.O=C(O)C(F)(F)F (configuration not stated)	-91.3	-9.239
O=C(Cc1ccc(O)c(Cl)c1)N1CCCCC1CCn1cccn1 (configuration not stated)	10.3	-3.001
[H][C@@]12COC[C@]1([H])[C@@H](OCc1cccnc1)CN2C(=O)c1ccc[nH]1	10.23	5.065
O=C(O)C(F)(F)F.[H][C@@]12OCCN(C(=O)N3CCCC3)[C@@]1([H])CC[C@@H]2OCc1cccnc1	-17.71	4.789
O=C(O)C(F)(F)F.[H][C@@]12CN(Cc3cccc(C)c3)C[C@]1([H])OCCN2CC(=O)N(C)C	-87.41	-23.76
Cc1c[nH]c(CN2CCCCC2CCn2ccnc2C)c(C)c1=O (configuration not stated)	-40.73	9.625
COCc1noc(CN2C[C@H](NS(C)(=O)=O)[C@@H](C3CC3)C2)n1	-17.73	6.991
COCC(=O)NCc1cnc(C)nc1-c1cn(C)c2ccc(OC)cc12	-5.457	-3.155
O=C(O)C(F)(F)F.[H][C@@]12C[C@H](C(=O)NCCOC)CN(Cc3ccoc3)[C@]1([H])CCO2	-6.954	-22.94
Cc1cc(C)n(CC2CN(CCOc3cccc(F)c3)CCO2)n1 (configuration not stated)	38.11	-2.448
Cc1nc2cc(C3CCCCN3C(=O)C3CC3)nn2c(O)c1C (configuration not stated)	-	4.651
C[C@@H]1CN(C(=O)CCN2CCOCC2)CC[C@]1(C)O	3.976	-3.244

4 of the entries, repeated:

- CC1CCCN(C(=O)c2ccn(COc3ccccc3)n2)C1 (configuration not stated) : T. brucei: -13.14%; Toxoplasma: 12.86%
- O=C(O)C(F)(F)F.[H][C@@]12CN(Cc3cccc(C)c3)C[C@]1([H])OCCN2CC(=O)N(C)C : T. brucei: -87.41%; Toxoplasma: -23.76%
- Cc1ccc(CN2CCCC3(COCCN(Cc4c[nH]nn4)C3)C2)o1.O=C(O)C(F)(F)F.O=C(O)C(F)(F)F (configuration not stated) : T. brucei: -0.09539%; Toxoplasma: 0.1068%
- CSc1ccc(NC(=O)Cn2cc(NC(C)=O)cn2)cc1 : T. brucei: -92.03%; Toxoplasma: -16.74%

Data taken from ChEMBL document CHEMBL3988442, “University of Dundee, Small-Polar-MMV Screening Library” (2021).